In PubChem BioAssay AID1347075 (National Center for Advancing Translational Sciences (NCATS), 2019):
Screen size: about 400,000 compounds; about 5,500 (1.4%) were called active. The shares of active, inactive and inconclusive entries below differ from those in the screen. The call rests on the fitted dose curve; in most records, active means well fitted cell-killing curve with a large enough effect; inconclusive means small, poorly fitted or top-dose-only effect, or effect the other way; inactive means flat fitted curve, though single readings scatter. Potencies of inconclusive entries are doubtful fits and often do not repeat.

Assay: qHTS assay for MDR1-selective chemotherapeutics: Primary screen using the parental adenocarcinoma cell KB-3-1; further: nearly all actives have a fitted effect of over 60% in size
Details: KB-3-1 viability, CellTiter-Glo ATP luminescence, 72 h; activity change, negative = cytotoxic: at 46.1 µM (top of the series)
Method in brief: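 Parental KB-3-1 viability, qHTS format: 72 h compound exposure, 37 °C; CellTiter-Glo; media-only wells and DMSO plates as controls; concentration-effect fits on corrected data.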
On the % scale 0 is the no-effect control and ±100 the full control effect; potency means the concentration at half of the fitted maximal effect.

Row | Compound | Potency | activity change, negative = cytotoxic
1 | Cc1ccccc1C(=O)NCc1ccc2c(c1)CCN2C(=O)c1ccccc1 | inconclusive: 16.4 µM [cytotoxic, single point] | –
2 | Cc1nc(CN(C)c2ncnc3ccc(-c4ccc5c(c4)OCO5)cc23)cs1 | inconclusive: 29.1 µM [cytotoxic, single point] | –
3 | O=C(NCC(=O)N1CCN(C(c2ccccc2)c2ccccc2)CC1)c1ccc(Br)o1 | inconclusive: 20.6 µM [cytotoxic, partial curve, poor fit] | –
4 | NC(=O)[C@H]1CC2(CC(c3cccc(NC(=O)CC(c4ccccc4)c4ccccc4)c3)=NO2)CN1C(=O)CC(c1ccccc1)c1ccccc1 (some centres not stated) | inconclusive: 29.1 µM [cytotoxic, single point] | –
5 | NC(=O)c1cccc(Nc2nc(C(N)Cc3ccc(C(F)(F)F)cc3)cs2)n1 (configuration not stated) | inconclusive: 29.1 µM [cytotoxic, single point] | –
6 | COc1ccc(CNC(=O)c2cc(Nc3ccc(OC)cc3OC)nc3ccccc23)cc1 | – | inactive: -1.48%
7 | CCC(C(=O)NCc1ccco1)n1nc(C)c2c(C)n(-c3ccccc3)nc2c1=O (configuration not stated) | – | inactive: -2.51%
8 | COc1cccc(C2=NN(C(=O)c3ccc(C)o3)C(O)(C(F)(F)F)C2)c1 (configuration not stated) | inconclusive: 29.1 µM [cytotoxic, single point] | –
9 | NC(=O)CC1C(=O)N(c2ccccc2)C(=S)N1NC(=O)c1ccccc1 (configuration not stated) | – | inactive: -3.28%
10 | O=C(NC1CCCc2c1cnn2-c1ccccc1F)c1ccccn1 (configuration not stated) | – | inactive: -26.2%
11 | CCc1nn(C(C)C(=O)Nc2cccc(C)c2C)c(=O)c2cc3occc3n12 (configuration not stated) | inconclusive: 20.6 µM [cytotoxic, single point] | –
12 | CC(=O)Nc1cc(-c2ccccc2N(C)C)cn2c(-c3ccc(F)c(Cl)c3)cnc12 | inconclusive: 29.1 µM [cytotoxic, single point] | –
13 | NC(N)=N/N=C/c1ccc(OCc2ccccc2Cl)cc1 | inconclusive: 9.2 µM [cytotoxic, partial curve, poor fit] | –
14 | Cc1ccn2c(C(=O)N/N=C\c3ccccc3[N+](=O)[O-])c(C)nc2c1 | inconclusive: 8.2 µM [rising, partial curve] | –
15 | COc1cc(NC(=O)c2cc3ccccc3cc2OC)ccc1NC(=O)c1cccs1 | inconclusive: 29.1 µM [cytotoxic, single point] | –
16 | COc1ccc(N/N=C2/CCCCC2=O)cc1 | inconclusive: 18.4 µM [cytotoxic, single point] | –
17 | COc1ccccc1-c1ccc2c(c1)C(C)(Cc1cccc(C#N)c1)C(=O)N2 (configuration not stated) | inconclusive: 32.6 µM [cytotoxic, partial curve, poor fit] | –
18 | COc1cc(OC)cc(-c2noc([C@H]3C[C@H](O)[C@@H](CO)O3)n2)c1 | – | inactive: 0%
19 | CN(C)c1nc(C#N)nc(N(C)C)n1 | inconclusive: 29.1 µM [rising, single point] | –
20 | COc1cccc(OCCn2cc(C(=O)c3ccco3)c3ccccc32)c1 | – | inactive: -8.2%
21 | Cc1ccc(NC(=S)NN2CCN(C)CC2)c(C)c1 | inconclusive: 8.2 µM [rising, partial curve, poor fit] | –
22 | CC(=O)c1cc2ccccc2oc1=O | – | inconclusive: -14%
23 | OB(O)c1cc2ccccc2o1 | inconclusive: 10.3 µM [cytotoxic, partial curve, poor fit] | –

Row | Compound | Potency | activity change, negative = cytotoxic
24 | CCCCCCCCN1C(=O)[C@H](CC(=O)NCC2CCCCC2)C[C@@]2(C(=O)OCC)CCCC=C12 | inconclusive: 29.1 µM [cytotoxic, single point] | –
25 | CCc1ccc(-c2cc(C)no2)cc1S(=O)(=O)NCCc1ccccc1 | inconclusive: 20.6 µM [cytotoxic, single point] | –
26 | O=C(/C=C/c1ccc(Cl)cc1)Nc1ccc(Br)cn1 | inconclusive: 11.6 µM [cytotoxic, partial curve, poor fit] | –
27 | FC(F)(F)c1ccc(CN2C[C@@H]3C(c4ccc(C(F)(F)F)cc4)C4(c5cccnc5)CC3(C4)[C@H]2c2ccccc2)cc1 (some centres not stated) | inconclusive: 29.1 µM [cytotoxic, single point] | –
28 | Cc1cccc(OCC(=O)Nc2ccncc2)c1C | inconclusive: 32.6 µM [cytotoxic, single point] | –
29 | CCOc1ccc(S(=O)(=O)n2c(C)nc3ccccc32)cc1 | inconclusive: 23.1 µM [cytotoxic, single point] | –
30 | O=C(Nc1cccc(C(=O)N2CCN(c3ccc(F)cc3)CC2)c1)c1nsc2ccccc12 | – | inactive: -18.2%
31 | CCc1c(-c2ccc(Cl)cc2)ncn1Cc1cccc(-c2ccccc2)c1 | inconclusive: 20.6 µM [cytotoxic, single point] | –
32 | COCCn1c(N)c(N(Cc2ccccc2)C(=O)c2oc3ccccc3c2C)c(=O)[nH]c1=O | inconclusive: 2.31 µM [rising, full curve, poor fit] | –
33 | O=C(Nc1ccc(Oc2ccccc2)cc1)C1CCN(S(=O)(=O)c2ccccc2)CC1 | inconclusive: 29.1 µM [cytotoxic, single point] | –
34 | O=C(Cn1cnc2c(nnn2-c2cccc(Cl)c2)c1=O)N1CCCC1 | – | inactive: 0.333%
35 | Cc1ccc(N(C(=O)c2csnn2)C(C(=O)NC2CCCCC2)c2cccnc2)cc1 (configuration not stated) | inconclusive: 20.6 µM [rising, single point] | –
36 | NC(=S)NNc1c(F)c(F)c(F)c(F)c1F | inconclusive: 32.6 µM [rising, partial curve, poor fit] | –
37 | O=C(Oc1cccc([N+](=O)[O-])c1)c1cc(-c2ccccc2)nc2ccccc12 | – | inactive: 0.937%
38 | CC(=O)c1cc(-c2ccc(F)cc2)n(CCC(=O)NCc2ccc(C)cc2)c1C | – | inactive: -2.87%
39 | Cc1nc2c(=O)[nH]n(C)c2nc1C | – | inactive: 4.99%
40 | COC(=O)c1cc(=O)n(CCc2ccc(OC)c(OC)c2)c(=Nc2ccc(F)c(Cl)c2)s1 | inconclusive: 16.4 µM [cytotoxic, single point] | –
41 | N#Cc1ccc(C23CC4(C2)[C@H](CN(P(=O)(c2ccccc2)c2ccccc2)[C@@H]4c2ccccc2)C3c2ccc(Cl)nc2)cc1 (some centres not stated) | inconclusive: 29.1 µM [cytotoxic, single point] | –
42 | CCOC(=O)c1[nH]c(C)c(C(=O)Nc2cc(OC)ccc2OC)c1C | active: 1.26 µM | –
43 | CC1(C(=O)NS(=O)(=O)c2cccs2)CCN1C(=O)c1ccccc1 (configuration not stated) | – | inactive: 9.35%
44 | COC(=O)c1ccc(N/C=C/C(=O)c2ccccc2)cc1 | – | inactive: -1.07%
45 | Cc1ccc(-n2ncc(C(=O)N3CCN(C4CCCCC4)CC3)c2C2CCN(C(=O)OC(C)(C)C)CC2)cc1 | – | inactive: 6.8%
46 | CSc1ccc(/C=C/C(=O)c2c(O)cc(C)oc2=O)cc1 | inconclusive: 29.1 µM [cytotoxic, single point] | –

Row | Compound | Potency | activity change, negative = cytotoxic
47 | CNc1nc(N/N=C/c2ccc([N+](=O)[O-])cc2)nc(Nc2ccccc2)n1 | inconclusive: 32.6 µM [cytotoxic, single point] | –
48 | O=C(Nc1ccccc1C(=O)O)c1cc(S(=O)(=O)N2CCOCC2)c(Br)s1 | inconclusive: 29.1 µM [cytotoxic, single point] | –
49 | COc1ccc(S(=O)(=O)N(CCc2ccccc2)CC(=O)Nc2cc(C)ccc2C)cc1 | – | inactive: 2.39%
50 | CCOC(=O)c1c(NC(=O)CSc2nnnn2-c2ccccc2OCC)sc2c1CC(C)(C)NC2(C)C | inconclusive: 29.1 µM [cytotoxic, single point] | –
51 | COc1ccc(Cl)cc1Nc1nc(-c2sc(NC(=O)C(C)(C)C)nc2C)cs1 | inconclusive: 25.9 µM [cytotoxic, single point] | –
52 | COc1ccc(OC)c(NP2(=O)OCC(C)([N+](=O)[O-])CO2)c1 (configuration not stated) | – | inactive: -0.948%
53 | CC(C)(C)c1ccc(SCCc2ccncc2)cc1 | inconclusive: 18.4 µM [cytotoxic, single point] | –
54 | CCCC(C(=O)NC1CCCC1)N(C(=O)Cn1nnc(-c2ccc(C)o2)n1)c1ccccc1F (configuration not stated) | inconclusive: 29.1 µM [rising, partial curve, poor fit] | –
55 | CCOC(=O)C1(CCOc2ccccc2)CCN(Cc2cccc(OC)c2O)CC1 | inconclusive: 18.4 µM [cytotoxic, single point] | –
56 | O=C1C=C(/C=C/c2ccccc2)C[C@@H](c2ccc(F)cc2)C1 | – | inactive: -2.66%
57 | O=C(C1=C[C@@H](c2ccc(Br)cc2)C[C@@H](OCCCCO)O1)N1CCN(Cc2ccccc2)CC1 | inconclusive: 29.1 µM [cytotoxic, single point] | –
58 | COc1cc(Cl)c(C)cc1Nc1c2c(nc3ccccc13)CCC2 | active: 4.11 µM | –
59 | CCC(=O)N1CCC2(CC1)Oc1ccc(F)cc1C(=O)C21CC(c2ccc(Cl)cc2)=NO1 (configuration not stated) | inconclusive: 29.1 µM [cytotoxic, single point] | –
60 | CCCCCCCCn1c(N2CCN(c3cccc(Cl)c3)CC2)nc2c1c(=O)[nH]c(=O)n2C | – | inactive: -22.6%
61 | CCOC(=O)c1cccc(NS(=O)(=O)c2c(C)nc3sc(C)cn3c2=O)c1 | inconclusive: 18.4 µM [cytotoxic, single point] | –
62 | CCCCNS(=O)(=O)c1ccc2nc(SCC(=O)Nc3sccc3C#N)[nH]c2c1 | inconclusive: 29.1 µM [cytotoxic, single point] | –
63 | COCOCCn1cc(CN2CCS(=O)(=O)N(Cc3ccc(-c4ccc(C)cc4)cc3)C(C)C2=O)nn1 (configuration not stated) | – | inactive: -19.4%
64 | Cc1ccccc1C1C(C#N)=C2N=C(N)c3c(sc4c3CCCCC4)N2C2=C1C(=O)CC(C)(C)C2 (configuration not stated) | – | inactive: -0.643%
65 | C=CCN(c1ccccc1)S(=O)(=O)c1cccc(C(=O)NC2CCN(Cc3ccccc3)CC2)c1 | active: 20.6 µM | –
66 | Cc1noc(C)c1COc1ccc(C(=O)OCC(=O)NC2CCCCC2C)cc1 (configuration not stated) | – | inactive: -0.426%
67 | Cc1ccc(NC(=O)CSc2nc(-c3cccs3)cc(C(F)(F)F)n2)cc1C | – | inconclusive: -35.8% [cytotoxic]

Some of the entries so far, as labelled records:
CN(C)c1nc(C#N)nc(N(C)C)n1
  Potency: inconclusive: 29.1 µM [rising, single point]
COc1cccc(OCCn2cc(C(=O)c3ccco3)c3ccccc32)c1
  activity change, negative = cytotoxic: inactive: -8.2%
Cc1ccc(NC(=S)NN2CCN(C)CC2)c(C)c1
  Potency: inconclusive: 8.2 µM [rising, partial curve, poor fit]
CC(=O)c1cc2ccccc2oc1=O
  activity change, negative = cytotoxic: inconclusive: -14%
